# Source: publication PMC9271913
# These are yes or no findings as the source states them, for the method shown. Binding seen in cells or lysates may run through a third protein. A yes stands for co-enrichment or nearness to the bait. Other partners may have been found. Tags and fused reporters may be left off the sequences shown.
# T1: Retention in endoplasmic reticulum 1 (Rer1), mouse (mouse (endogenous in brain)) (UniProt Q9CQU3)
# T1 sequence: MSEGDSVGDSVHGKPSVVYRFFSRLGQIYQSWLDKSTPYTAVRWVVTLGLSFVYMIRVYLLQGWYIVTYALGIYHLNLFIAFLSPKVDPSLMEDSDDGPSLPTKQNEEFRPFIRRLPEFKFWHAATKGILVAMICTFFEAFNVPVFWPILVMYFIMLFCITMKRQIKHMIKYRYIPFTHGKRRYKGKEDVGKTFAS
# Molecular target: T1, Retention in endoplasmic reticulum 1 (Rer1), mouse (mouse (endogenous in brain))
# Test: affinity purification with mass spectrometry; anti-RER1 immunoprecipitation of hippocampus lysates (gentle RIPA lysis buffer) of PTZ-induced Nedd4-2+/- and wild-type mice, LC-MS/MS; IgG-precipitated proteins subtracted; proteins present in all four replicates of a group defined as positive
row,binding,Binder
1,binds,"O-GlcNAc transferase subunit p110 (protein, UniProt Q8CGY8 1-1046) MASSVGNVADSTEPTKRMLSFQGLAELAHREYQAGDFEAAERHCMQLWRQEPDNTGVLLLLSSIHFQCRRLDRSAHFSTLAIKQNPLLAEAYSNLGNVYKERGQLQEAIEHYRHALRLKPDFIDGYINLAAALVAAGDMEGAVQAYVSALQYNPDLYCVRSDLGNLLKALGRLEEAKACYLKAIETQPNFAVAWSNLGCVFNAQGEIWLAIHHFEKAVTLDPNFLDAYINLGNVLKEARIFDRAVAAYLRALSLSPNHAVVHGNLACVYYEQGLIDLAIDTYRRAIELQPHFPDAYCNLANALKEKGSVAEAEDCYNTALRLCPTHADSLNNLANIKREQGNIEEAVRLYRKALEVFPEFAAAHSNLASVLQQQGKLQEALMHYKEAIRISPTFADAYSNMGNTLKEMQDVQGALQCYTRAIQINPAFADAHSNLASIHKDSGNIPEAIASYRTALKLKPDFPDAYCNLAHCLQIVCDWTDYDERMKKLVSIVAEQLEKNRLPSVHPHHSMLYPLSHGFRKAIAERHGNLCLDKINVLHKPPYEHPKDLKLSDGRLRVGYVSSDFGNHPTSHLMQSIPGMHNPDKFEVFCYALSPDDGTNFRVKVMAEANHFIDLSQIPCNGKAADRIHQDGIHILVNMNGYTKGARNELFALRPAPIQAMWLGYPGTSGALFMDYIITDQETSPAEVAEQYSEKLAYMPHTFFIGDHANMFPHLKKKAVIDFKSNGHIYDNRIVLNGIDLKAFLDSLPDVKIVKMKCPDGGDNPDSSNTALNMPVIPMNTIAEAVIEMINRGQIQITINGFSISNGLATTQINNKAATGEEVPRTIIVTTRSQYGLPEDAIVYCNFNQLYKIDPSTLQMWANILKRVPNSVLWLLRFPAVGEPNIQQYAQNMGLPQNRIIFSPVAPKEEHVRRGQLADVCLDTPLCNGHTTGMDVLWAGTPMVTMPGETLASRVAASQLTCLGCLELIAKSRQEYEDIAVKLGTDLEYLKKIRGKVWKQRISSPLFNTKQYTMELERLYLQMWEHYAAGNKPDHMIKPVEVTESA"
2,binds,"1-phosphatidylinositol 4,5-bisphosphate phosphodiesterase beta-1 (protein, UniProt Q9Z1B3 1-1216) MAGAQPGVHALQLKPVCVSDSLKKGTKFVKWDDDSTIVTPIILRTDPQGFFFYWTDQNKETELLDLSLVKDARCGKHAKAPKDPKLRELLDVGNIGHLEQRMITVVYGPDLVNISHLNLVAFQEEVAKEWTNEVFSLATNLLAQNMSRDAFLEKAYTKLKLQVTPEGRIPLKNIYRLFSADRKRVETALEACSLPSSRNDSIPQEDFTPDVYRVFLNNLCPRPEIDNIFSEFGAKSKPYLTVDQMMDFINLKQRDPRLNEILYPPLKQEQVQVLIEKYEPNSSLAKKGQMSVDGFMRYLSGEENGVVSPEKLDLNEDMSQPLSHYFINSSHNTYLTAGQLAGNSSVEMYRQVLLSGCRCVELDCWKGRTAEEEPVITHGFTMTTEISFKEVIEAIAECAFKTSPFPILLSFENHVDSPKQQAKMAEYCRLIFGDALLMEPLEKYPLESGVPLPSPMDLMYKILVKNKKKSHKSSEGSGKKKLSEQASNTYSDSSSVFEPSSPGAGEADTESDDDDDDDDCKKSSMDEGTAGSEAMATEEMSNLVNYIQPVKFESFEISKKRNKSFEMSSFVETKGLEQLTKSPVEFVEYNKMQLSRIYPKGTRVDSSNYMPQLFWNAGCQMVALNFQTVDLAMQINMGMYEYNGKSGYRLKPEFMRRPDKHFDPFTEGIVDGIVANTLSVKIISGQFLSDKKVGTYVEVDMFGLPVDTRRKAFKTKTSQGNAVNPVWEEEPIVFKKVVLPSLACLRIAAYEEGGKFIGHRILPVQAIRPGYHYICLRNERNQPLTLPAVFVYIEVKDYVPDTYADVIEALSNPIRYVNLMEQRAKQLAALTLEDEEEVKKEADPGETSSEAPSETRTTPAENGVNHTASLAPKPPSQAPHSQPAPGSVKAPAKTEDLIQSVLTEVEAQTIEELKQQKSFVKLQKKHYKEMKDLVKRHHKKTTELIKEHTTKYNEIQNDYLRRRAALEKSAKKDSKKKSEPSSPDHGSSAIEQDLAALDAEMTQKLIDLKDKQQQQLLNLRQEQYYSEKYQKREHIKLLIQKLTDVAEECQNNQLKKLKEICEKEKKELKKKMDKKRQEKITEAKSKDKSQMEEEKTEMIRSYIQEVVQYIKRLEEAQSKRQEKLVEKHNEIRQQILDEKPKLQTELEQEYQDKFKRLPLEILEFVQEAMKGKISEDSNHGSAPPSLASDAAKVNLKSPSSEEIERENPGREFDTPL"
3,binds,"Nebulette isoform X2 (protein, UniProt Q0II04 1-452) MKVPVSGDVKEETEEENVEQEENQEAKVSLKPVIEDLSMELARKCTELISDIHYKEEYKKSKDKCTFVTDTPMLNHVKNIGAFISEAKYKGTIKADLSNCLYKDMPATIDSVFAREVSQLQSEVAYKQKHEAEKGFSDYTHMKEPPEVRRAMEVNRHQSNISYRKDMQGTHTYTAELDRPDIKKATQISKIISDAEYKKGQGIVNKEPSVIGRPDFEHAVGASKLSSQVKYKEKFDNEMKEKSHHYNPLGSAFFRQHQFAAVLASDWEYKRDFEENKGLYHFDAEAPEHLHHKGNATLQSQVKYREEYEKNKGKSMLEFVETPSYQSSKEAQKMQSEKVYKEDFEKEIKGRSSLDLDKTPAFLHVKHITNLMREKEYKKDLENEIKGKGMELSSEVLDIQRAKRASEMASEKDYKRDLETEIKGKGMQVSTDTLDVQRAKRASEMASQVRMV"
4,binds,"Regulator of G-protein signaling 14 isoform X1 (protein, UniProt P97492 1-547) MPGKPKHLGVPNGRMVLAVSDGELTSTAGSQAQGEGRGSSLSIHSLPSGPSSPFSTEEQPVASWAQSFERLLQDPRGLAYFTEFLKKEFSAENVTFWKACERFQQIPASDTKQLAQEAHNIYHEFLSSQALSPVNIDRQAWLSEEVLAQPRPDMFRAQQLQIFNLMKFDSYARFVKSPLYQECLLAEAEGRPLREPGSSHLGSPDTARKKPKLKPGKSLPLGVEELGQLPLAEGPCGRPLRKSFRREMTGGAMNSALRRESQGSLNSSASLDLGFLAFVSSKSESHRKSLGSGESESESRPGKYCCVYLPDGTASLALARPGLTIRDMLAGICEKRGLSLPDIKVYLVGNEQKALVLDQDCTVLADQEVRLENRITFQLELVGLERVVRISAKPTKRLQEALQPILAKHGLSLDQVVLHRPGEKQPMDLENPVSSVASQTLVLDTPPDAKMSEARSISPCRSQGCLPRTQTKDSHLPPSSSSLLVEDASSSTGNRQTCDIEGLVELLNRVQSSGAHDQRGLLRKEDLVLPEFLQLPSQRPGSREAPP"
5,binds,"Transcriptional activator protein Pur-beta (protein, UniProt O35295 1-324) MADGDSGSERGGGGGGGGGPGGFQPAPRGGGGGGGGPGGEQETQELASKRLDIQNKRFYLDVKQNAKGRFLKIAEVGAGGSKSRLTLSMAVAAEFRDSLGDFIEHYAQLGPSSPEQLAAGAEEGGGPRRALKSEFLVRENRKYYLDLKENQRGRFLRIRQTVNRGGGGFGGGPGPGGLQSGQTIALPAQGLIEFRDALAKLIDDYGGDEDELAGGPGGGAGGPGGGLYGELPEGTSITVDSKRFFFDVGCNKYGVFLRVSEVKPSYRNAITVPFKAWGKFGGAFCRYADEMKEIQERQRDKLYERRGGGSGGGDESEGEEVDED"
6,binds,"Glucose 1,6-bisphosphate synthase (protein, UniProt Q8CAA7 1-621) MAENADDDLNSNLLHAPYLTGDPQLDTAIGQWLRWDKNPKTKEQIENLLRNGMNKELRDRLCCRMTFGTAGLRSAMGAGFCYINDLTVIQSTQGMYKYLERCFSDFKQRGFVVGYDTRGQVTSSCSSQRLAKLTAAVLLAKDIPVYLFSRYVPTPFVPYAVQELKAVAGVMITASHNRKEDNGYKVYWETGAQITSPHDKEILKCIEECVEPWNDSWNDNLVDTSPLKKDPLQDICKKYMEDLKKICFYRDLNSKTTLKFVHTSFHGVGHDYVQLAFQVFGFKPPIPVPEQKDPDPDFSTVKCPNPEEGESVLELSLRLAEKENARIVLATDPDADRLAVAELQENGRWKVFTGNELAALFGWWMFDCWKKNKPNADVKNVYMLATTVSSKILKAIALKEGFHFEETLPGFKWIGSRIKDLLGNGKEVLFAFEESIGFLCGTSVLDKDGVSAAAVVAEMASFLDTRKVTLMEQLTKVYEIYGYHMSKTSYFLCYDPPTIKTIFERIRNFESPKEYPKFCGAFAILHVRDITTGYDSSQPNKKSVLPVSKNSQMITFTFQNGCVATLRTSGTEPKIKYYAEMCASPGQSDTTFLEEELKKLIDALIENFLEPSKNALVWRSV"
7,binds,"Leukotriene A(4) hydrolase (protein, UniProt P24527 1-611) MPEVADTCSLASPASVCRTQHLHLRCSVDFARRTLTGTAALTVQSQEENLRSLTLDTKDLTIEKVVINGQEVKYTLGESQGYKGSPMEISLPIALSKNQEIVIEISFETSPKSSALQWLTPEQTSGKQHPYLFSQCQAIHCRAILPCQDTPSVKLTYTAEVSVPKELVALMSAIRDGEAPDPEDPSRKIYRFNQRVPIPCYLIALVVGALESRQIGPRTLVWSEKEQVEKSANEFSETESMLKIAEDLGGPYVWGQYDLLVLPPSFPYGGMENPCLTFVTPTLLAGDKSLSNVIAHEISHSWTGNLVTNKTWDHFWLNEGHTVYLERHICGRLFGEKFRHFHALGGWGELQNTIKTFGESHPFTKLVVDLKDVDPDVAYSSIPYEKGFALLFYLEQLLGGPEVFLGFLKAYVKKFSYQSVTTDDWKSFLYSHFKDKVDLLNQVDWNTWLYAPGLPPVKPNYDVTLTNACIALSQRWVTAKEEDLSSFSIADLKDLSSHQLNEFLAQVLQKAPLPLGHIKRMQEVYNFNAINNSEIRFRWLRLCIQSKWEEAIPLALKMATEQGRMKFTRPLFKDLAAFDKSHDQAVHTYQEHKASMHPVTAMLVGRDLKVD"
8,binds,"RasGAP-activating-like protein 1 (protein, UniProt Q9Z268 1-799) MAKSGSLSIRVVEGRALPAKDVSGSSDPYCLVKVDDQVVARTATIWRSLSPFWGEEYTVHLPLDFHHLAFYVLDEDTVGHDDIIGKISLSKEAITADPRGIDSWINLSRVDPDAEVQGEVCLDVKLLEDARGRCLRCHVRQARDLAPRDISGTSDPFARVFWGNHSLETSTIKKTRFPHWDEVLELREAPGTTSPLRVELWDWDMVGKNDFLGMVEFTPQTLQQKPPNGWFRLLPFPRAEDSGGSLGALRLKVRLTEDRVLPSQYYQPLMELLLESVQGPAEEDTTSPLALLEELASGDCRQDLATKLVKLFLGRGLAGPFLDYLTRREVARTNDPNTLFRSNSLASKSMEQFMKLVGMRYLHEVLRPVISRVFEEKKYMELDPCKMDLNRSRRISFKGTPTEEQVRETSLGLLTGYLGSVVDAIVSSTGRCPLALRLAFKQLQRCVEKRFSGIEHQDVKYLAISGFLFLRFFAPAILTPKLFDLRDQHADPQTSRSLLLLAKAVQSIGNLGQQLGQGKEQWLAPLHPFLLQSISRVRDFLDQLVDVDEDEEAGGPACALVQPSTIVREGFLLKRKEEPGGLATRFAFKKRYFRLSGRDLSYSKTPEWQVHTSIPLSCIRAVEHVDEGAFQLPHVMQVVTQDGAGTSHTTYLQCKNVNDLNQWLSALRKASAPNPGKLVACHPGAFRSGRWTCCLQAERSAAGCSRTHSAITLGDWSDPLDPDAEAQAVYRQLLLGRDQLRLKLLEDSSLDTEVDPGRDSSATDGPCAEVLAQQRAATTHLLQVLEDLEQAHEEFQKRG"
